Results are given in words; binding and its absence hold for the method and conditions named. Binding can be weak; no strength is given. For some of these results: Binding seen in cells or lysates may run through a third protein.
Columns and labels:
[1] = molecular target: T1, SOD2 (endogenous, 293T cells) (UniProt P04179); assay: co-immunopurification (anti-Flag) from 293T cells overexpressing Flag-SIRT3, western blot with SOD2 antibody
T1 sequence (looked up): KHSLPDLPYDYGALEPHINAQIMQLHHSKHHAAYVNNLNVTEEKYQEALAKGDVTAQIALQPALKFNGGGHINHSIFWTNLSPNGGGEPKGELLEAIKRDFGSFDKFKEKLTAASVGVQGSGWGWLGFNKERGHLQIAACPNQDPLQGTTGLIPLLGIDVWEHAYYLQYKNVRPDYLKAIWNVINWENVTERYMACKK

[2] = molecular target: T1, SOD2 (endogenous, 293T cells); assay: FIG. 3A: Flag-SIRT3 transfected into 293T cells, immunopurified, western blot with anti-SOD2
[3] = molecular target: T2, SIRT3 (present in 293T cells) (UniProt Q9NTG7); assay: FIG. 3B: Flag-SOD2 transfected into 293T cells, immunopurified, western blot with anti-SIRT3
T2 sequence (looked up): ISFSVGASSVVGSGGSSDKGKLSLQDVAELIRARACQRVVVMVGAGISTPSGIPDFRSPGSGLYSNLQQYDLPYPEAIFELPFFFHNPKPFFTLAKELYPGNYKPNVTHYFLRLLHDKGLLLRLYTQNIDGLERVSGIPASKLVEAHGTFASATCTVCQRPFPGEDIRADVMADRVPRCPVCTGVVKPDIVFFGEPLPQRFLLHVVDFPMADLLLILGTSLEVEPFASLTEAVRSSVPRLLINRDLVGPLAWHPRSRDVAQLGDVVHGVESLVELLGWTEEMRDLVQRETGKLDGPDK

[4] = molecular target: T2, SIRT3 (present in 293T cells); assay: co-immunopurification from 293T cells transfected with Flag-SOD2, western blot with SIRT3 antibody

Substance: Flag-tagged SIRT3 (enzyme)
- binding [1]: binds
- binding [2]: binds

Substance: Flag-tagged SOD2 (enzyme)
- binding [3]: binds
- binding [4]: binds
